Test results taken from the supplement of paper PMC10849652.
Some of the results follow.

The chains behind the UniProt entries cited, without tags or fusion partners. Where a name states a change or a piece, a line headed by the entry shows the natural chain unless it says otherwise.
UniProt P48643, whole entry, looked up: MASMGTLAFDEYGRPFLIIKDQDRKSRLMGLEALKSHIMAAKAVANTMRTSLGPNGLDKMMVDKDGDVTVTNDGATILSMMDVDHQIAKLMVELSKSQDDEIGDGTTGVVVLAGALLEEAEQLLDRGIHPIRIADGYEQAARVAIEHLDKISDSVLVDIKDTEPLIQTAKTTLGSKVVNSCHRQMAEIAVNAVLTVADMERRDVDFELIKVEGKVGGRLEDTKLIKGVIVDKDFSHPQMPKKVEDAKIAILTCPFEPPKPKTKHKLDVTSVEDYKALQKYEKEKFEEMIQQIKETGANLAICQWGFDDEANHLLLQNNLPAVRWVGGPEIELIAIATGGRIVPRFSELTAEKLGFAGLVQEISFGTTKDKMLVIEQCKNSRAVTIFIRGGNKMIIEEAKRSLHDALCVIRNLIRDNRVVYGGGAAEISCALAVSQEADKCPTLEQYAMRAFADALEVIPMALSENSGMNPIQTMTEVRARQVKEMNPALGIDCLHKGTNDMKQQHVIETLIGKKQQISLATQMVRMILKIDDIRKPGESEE
UniProt Q15834: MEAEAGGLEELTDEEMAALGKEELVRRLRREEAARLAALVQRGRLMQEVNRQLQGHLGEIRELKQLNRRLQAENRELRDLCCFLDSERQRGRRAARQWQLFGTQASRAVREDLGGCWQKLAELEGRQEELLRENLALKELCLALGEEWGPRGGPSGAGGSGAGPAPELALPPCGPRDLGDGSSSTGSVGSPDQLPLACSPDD
UniProt P83916, whole entry, looked up: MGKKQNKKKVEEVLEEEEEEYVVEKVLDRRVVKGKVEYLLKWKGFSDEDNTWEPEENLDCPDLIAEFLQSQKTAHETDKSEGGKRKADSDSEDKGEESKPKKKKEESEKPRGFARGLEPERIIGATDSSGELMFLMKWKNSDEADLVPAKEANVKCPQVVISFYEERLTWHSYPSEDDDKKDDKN
UniProt Q13951, whole entry, looked up: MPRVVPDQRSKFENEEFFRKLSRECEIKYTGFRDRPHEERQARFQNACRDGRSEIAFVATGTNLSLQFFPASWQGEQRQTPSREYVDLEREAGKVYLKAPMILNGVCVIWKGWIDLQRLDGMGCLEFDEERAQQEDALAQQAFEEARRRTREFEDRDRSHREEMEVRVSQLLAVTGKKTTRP
UniProt Q92851: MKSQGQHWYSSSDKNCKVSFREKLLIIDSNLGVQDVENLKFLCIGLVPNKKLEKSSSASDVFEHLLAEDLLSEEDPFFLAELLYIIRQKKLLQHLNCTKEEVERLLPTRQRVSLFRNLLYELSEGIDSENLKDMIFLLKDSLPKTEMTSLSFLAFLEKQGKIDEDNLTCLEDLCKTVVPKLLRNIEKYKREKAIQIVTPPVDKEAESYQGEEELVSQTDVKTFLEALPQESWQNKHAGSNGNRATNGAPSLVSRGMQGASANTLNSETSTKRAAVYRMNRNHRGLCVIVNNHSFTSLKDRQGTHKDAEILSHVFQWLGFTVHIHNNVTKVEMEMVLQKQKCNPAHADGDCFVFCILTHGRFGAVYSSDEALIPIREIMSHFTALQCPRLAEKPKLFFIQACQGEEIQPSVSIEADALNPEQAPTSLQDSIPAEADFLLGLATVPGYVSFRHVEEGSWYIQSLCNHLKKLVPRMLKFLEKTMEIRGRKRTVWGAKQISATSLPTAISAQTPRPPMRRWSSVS
UniProt Q5T0F9: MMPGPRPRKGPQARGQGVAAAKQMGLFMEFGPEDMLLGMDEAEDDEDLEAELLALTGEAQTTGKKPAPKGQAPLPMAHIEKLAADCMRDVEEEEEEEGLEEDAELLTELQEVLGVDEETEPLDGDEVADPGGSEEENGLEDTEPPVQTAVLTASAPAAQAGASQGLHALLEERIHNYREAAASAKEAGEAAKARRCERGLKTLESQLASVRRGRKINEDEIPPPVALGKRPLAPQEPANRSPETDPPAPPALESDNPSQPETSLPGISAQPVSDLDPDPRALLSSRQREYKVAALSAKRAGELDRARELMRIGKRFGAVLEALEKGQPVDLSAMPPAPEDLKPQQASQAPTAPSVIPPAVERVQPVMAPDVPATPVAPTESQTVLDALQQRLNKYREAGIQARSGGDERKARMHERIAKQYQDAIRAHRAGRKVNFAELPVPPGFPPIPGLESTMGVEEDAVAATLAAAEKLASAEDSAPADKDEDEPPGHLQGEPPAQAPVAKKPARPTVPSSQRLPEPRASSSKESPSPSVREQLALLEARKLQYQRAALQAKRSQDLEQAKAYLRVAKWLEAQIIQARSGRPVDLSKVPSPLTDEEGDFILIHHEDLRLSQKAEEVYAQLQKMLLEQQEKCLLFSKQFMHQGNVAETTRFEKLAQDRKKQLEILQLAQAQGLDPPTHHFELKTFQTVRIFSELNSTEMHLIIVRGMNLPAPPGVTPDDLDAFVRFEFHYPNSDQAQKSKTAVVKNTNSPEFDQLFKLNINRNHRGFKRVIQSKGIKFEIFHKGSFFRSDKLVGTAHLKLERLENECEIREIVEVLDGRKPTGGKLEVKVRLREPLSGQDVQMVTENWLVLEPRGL
UniProt Q9NPF0: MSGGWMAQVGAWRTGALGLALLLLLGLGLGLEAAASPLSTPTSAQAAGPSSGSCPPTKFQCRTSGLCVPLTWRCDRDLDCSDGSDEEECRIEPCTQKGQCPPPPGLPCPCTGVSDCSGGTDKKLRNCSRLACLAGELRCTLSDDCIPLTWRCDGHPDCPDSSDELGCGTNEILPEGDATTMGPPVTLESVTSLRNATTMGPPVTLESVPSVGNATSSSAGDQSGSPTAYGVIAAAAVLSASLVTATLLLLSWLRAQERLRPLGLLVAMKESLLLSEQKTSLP
UniProt Q7Z6B0: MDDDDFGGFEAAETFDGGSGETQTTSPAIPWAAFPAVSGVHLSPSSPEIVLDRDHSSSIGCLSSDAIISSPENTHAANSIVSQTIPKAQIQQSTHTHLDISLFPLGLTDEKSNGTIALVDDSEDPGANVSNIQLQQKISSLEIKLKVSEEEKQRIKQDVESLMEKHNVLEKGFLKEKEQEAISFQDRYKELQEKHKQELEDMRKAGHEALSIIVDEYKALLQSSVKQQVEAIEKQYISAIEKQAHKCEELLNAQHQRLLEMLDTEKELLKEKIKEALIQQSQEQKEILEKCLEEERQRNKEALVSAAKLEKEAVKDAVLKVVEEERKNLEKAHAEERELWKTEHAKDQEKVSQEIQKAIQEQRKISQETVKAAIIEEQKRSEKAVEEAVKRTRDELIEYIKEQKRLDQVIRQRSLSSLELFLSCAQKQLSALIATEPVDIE
UniProt P08174: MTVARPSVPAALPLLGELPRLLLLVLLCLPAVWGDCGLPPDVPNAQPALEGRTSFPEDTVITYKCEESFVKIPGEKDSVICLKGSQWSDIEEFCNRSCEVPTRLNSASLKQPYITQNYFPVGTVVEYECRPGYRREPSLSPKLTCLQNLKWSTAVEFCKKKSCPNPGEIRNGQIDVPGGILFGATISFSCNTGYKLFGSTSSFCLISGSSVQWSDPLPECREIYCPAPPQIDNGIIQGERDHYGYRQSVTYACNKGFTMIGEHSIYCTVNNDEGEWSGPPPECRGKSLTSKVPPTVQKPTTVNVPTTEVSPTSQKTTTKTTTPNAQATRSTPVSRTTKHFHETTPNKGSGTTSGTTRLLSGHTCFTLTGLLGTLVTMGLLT

What was measured:
Test in all cases: log2 fold change, soluble protein after heating vs DMSO (PISA); higher = thermal stabilisation; K562 cells, 10 uM, 30 min; active = over 0.2 and 3.5 SD of the protein, either way, in both replicates (recomputed)
[1] = compound: C1=CC=C(C=C1)[C@H](COC2=CC3=C(C=C2)NC(=O)N3)NC(=O)C4=CC=CN(C4=O)CC5=CC(=C(C=C5)F)F
In short: (§1)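 K562 cells (2×10^6 cells/mL) were treated with 10 μM compound for 30 min, and aliquots were heated for 3 min over 48°C-58°C. Pooled aliquots were extracted in PBS with 0.5% NP-40 at 4°C, and the supernatant after 21,000xg for 90 min was measured by TMTpro 16plex LC-MS/MS with channel sums equalised. Reported thermal stability, relative to control samples and from duplicates, is a log2 fold change.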

[2] = compound: CC1=C(SC2=C1C(=N[C@H](C3=NN=C(N32)C)CC(=O)N)C4=CC=C(C=C4)Cl)C
In short: as §1

[3] = compound: CC1=C2C(=CC=C1)N=C(N(C2=O)C3=CC=CC=C3C)CN4C=NC5=C(N=CN=C54)N
In short: as §1

[4] = compound: Cc1sc2c(c1C)C(c1ccc(Cl)cc1)=N[C@@H](CC(=O)OC(C)(C)C)c1nnc(C)n1-2
In short: as §1

[5] = compound: c1ccc([C@@H]2C[C@H]2NC2CCNCC2)cc1
In short: as §1

Measured: log2 fold change

CCT5 (UniProt P48643)
inactive: [1] -0.033 | [2] -0.018 | [3] -0.035 | [4] -0.023 | [5] -0.006

CCDC85B (UniProt Q15834)
inactive: [1] -0.05 | [2] -0.225 | [3] 0.108 | [4] 0.014 | [5] -0.407

CBX1 (UniProt P83916)
inactive: [1] 0.003 | [2] 0.026 | [3] 0.023 | [4] -0.003 | [5] 0.031

CBFB isoform 2 (UniProt Q13951)
inactive: [1] -0.023 | [2] 0.042 | [3] 0.025 | [4] 0.021 | [5] -0.026

CASP10 isoform 4 (UniProt Q92851)
inactive: [1] 0.064 | [2] 0.189 | [3] 0.114 | [4] 0.002 | [5] -0.145

CC2D1B isoform 2 (UniProt Q5T0F9)
inactive: [1] -0.074 | [2] 0 | [3] 0.052 | [4] 0.011 | [5] -0.032

CD320 (UniProt Q9NPF0)
inactive: [1] 0.012 | [2] -0.008 | [3] -0.006 | [4] -0.017 | [5] -0.005

CCDC91 (UniProt Q7Z6B0)
inactive: [1] -0.007 | [2] 0.012 | [3] 0.004 | [4] 0.01 | [5] 0.008

CD55 isoform 7 (UniProt P08174)
inactive: [1] 0.026 | [2] -0.058 | [3] -0.009 | [4] -0.066 | [5] -0.049
